In PubChem BioAssay AID504444 (National Center for Advancing Translational Sciences (NCATS), 2011):
The campaign covered roughly 360,000 compounds. About 7,500 (2.1%) were called active. Inconclusive means that the source gave no clear call. Such entries were picked first, then a sample of the others. Calls come from the whole dose curve; as a rule, active = well fitted inhibition curve with a large enough effect; inconclusive = small, poorly fitted or top-dose-only effect, or effect the other way; inactive = flat fitted curve, though single readings scatter. Potencies of inconclusive entries are doubtful fits and often do not repeat.

Test: Nrf2 qHTS screen for inhibitors; note: nearly all actives have a fitted effect of over 60% in size
Settings: A549 ARE-Fluc reporter, luciferase luminescence, 18-24 h; series mostly up to 46 µM
Procedure, shortened: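 Quantitative HTS in A549 cells stably bearing an antioxidant response element-firefly luciferase construct. Inhibition of Nrf2-driven transcription was scored by luminescence after 18-24 h of compound exposure at 37 °C.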
Potency is the fitted concentration of half-maximal effect.

Which Potency does the source give for Cc1cccc(C(=O)Nc2ccn(C)n2)c1 here?
The Potency was inconclusive: 2.91 µM [activator, full curve].

With COc1ccc2[nH]c(=O)c(CN(C(C)=O)C3CCCCC3)cc2c1 as the molecule, how does the Potency read?
Its Potency is inconclusive: 5.17 µM [activator, full curve, poor fit].

Which Potency does the source give for Cc1ccccc1OCc1nc2c3cnn(-c4ccccc4F)c3ncn2n1 here?
Its Potency is inconclusive: 1.84 µM [activator, partial curve, poor fit].

With COc1cccc2oc(CCc3ccccc3)cc(=O)c12 as the molecule, how does the Potency read?
Its Potency is “inactive”.

Which Potency does the source give for O=C(NCC1CCN(c2ccc(S(=O)(=O)N3CCOCC3)cc2)CC1)c1ccc(Cl)cc1 here?
Its Potency is inconclusive: 29.1 µM [falling, single point].

Which Potency does the source give for N=c1c2c3c(sc2nc2n1CCCCC2)CCCCC3 here?
Its Potency is inconclusive: 18.4 µM [activator, partial curve].

For Cc1nn2c(N3CCCC3)cc(C(C)C)nc2c1-c1ccccc1, which Potency is on record?
The Potency was inconclusive: 25.9 µM [falling, single point].

Which Potency does the source give for Clc1ccc(Nc2nc3cccnc3s2)cc1 here?
Its Potency is inconclusive: 10.3 µM [activator, partial curve].

With O=[N+]([O-])c1ccc(Cl)cc1Sc1ccccn1 as the molecule, how does the Potency read?
The Potency was “inactive”.

With CCN(CC)S(=O)(=O)c1cccc(NC(=O)c2cccc(S(=O)(=O)N3CCCC3)c2)c1 as the molecule, how does the Potency read?
The Potency was inconclusive: 18.4 µM [falling, single point].

With CSc1ccc(CN2CCCC(N3CCN(c4ccccc4)CC3)C2)cc1 (stereo not given) as the molecule, how does the Potency read?
Its Potency is “inactive”.

For Cc1ccc2nc(-c3ccccn3)[nH]c2c1, which Potency is on record?
The Potency was inconclusive: 29.1 µM [falling, single point].

For O=C(c1ccccc1)N1CCN(c2ccc(Cl)cc2)CC1, which Potency is on record?
The Potency was inconclusive: 20.6 µM [falling, partial curve, poor fit].

For COc1cc(C(=O)Nc2sc(C)c(C)c2C(=O)O)cc(OC)c1OC, which Potency is on record?
The Potency was “inactive”.

With O=C(OCCN1CCOCC1)c1ccc2c(c1)OCCO2 as the molecule, how does the Potency read?
The Potency was inconclusive: 12.6 µM [activator, single point].

With N#Cc1ccc(-n2nnc3ccccc3c2=O)c([N+](=O)[O-])c1 as the molecule, how does the Potency read?
Its Potency is “inactive”.

Which Potency does the source give for COc1ccc(C2=NN(C(C#N)c3ccc(OC)cc3)C(c3ccccc3)C2)cc1 (stereo not given) here?
The Potency was “inactive”.

Which Potency does the source give for CCOc1cc(/C=C2/C(=N)N3N=C(C)SC3=NC2=O)ccc1OS(=O)(=O)c1ccc(C)cc1 here?
The Potency was inconclusive: 18.4 µM [falling, single point].

With Cc1cc(=O)oc2cc(OCC(=O)N/N=C/c3ccccc3[N+](=O)[O-])ccc12 as the molecule, how does the Potency read?
The Potency was inconclusive: 32.6 µM [falling, single point].

For Cc1c(Cl)cccc1NC(=O)N1CCOc2ccccc21, which Potency is on record?
The Potency was “inactive”.

For CN(Cc1ccccc1)C1=CC(=[N+]2CCCCC2)CC(C)(C)C1, which Potency is on record?
Its Potency is active: 4.61 µM.

With COC(=O)c1sccc1S(=O)(=O)N1CCN(c2ccc(C)cc2C)CC1 as the molecule, how does the Potency read?
Its Potency is “inactive”.

Which Potency does the source give for CC(C)(C)C(=O)NC(=S)NNC(=O)c1ccc(-c2ccccc2)cc1 here?
The Potency was active: 2.91 µM.

With CCn1c(=O)c(C(C)=O)c(O)c2ccccc21 as the molecule, how does the Potency read?
The Potency was inconclusive: 7.31 µM [falling, single point].

With O=c1cc(-c2ccccc2)[nH]n2cnnc12 as the molecule, how does the Potency read?
Its Potency is inconclusive: 8.2 µM [activator, partial curve, poor fit].

Which Potency does the source give for CCOC(=O)c1c(C)[nH]c(C(=O)OCC(=O)NCc2ccc(OC)c(OC)c2)c1C here?
The Potency was inconclusive: 23.1 µM [falling, partial curve, poor fit].

With COc1cc(/C=C2\C(=O)ON=C2c2ccccc2)cc(Br)c1O as the molecule, how does the Potency read?
The Potency was inconclusive: 32.6 µM [activator, single point].

With CCOc1cc(C(=O)NC)cc(Br)c1OCc1ccccc1 as the molecule, how does the Potency read?
The Potency was inconclusive: 32.6 µM [falling, partial curve, poor fit].

For O=S(=O)(Nc1cccc2cccnc12)c1ccc(Br)s1, which Potency is on record?
Its Potency is inconclusive: 14.6 µM [falling, partial curve].

With O=C(COc1ccccc1)NCc1ccccc1 as the molecule, how does the Potency read?
The Potency was inconclusive: 20.6 µM [activator, partial curve, poor fit].

With Cc1ccc(OCC(=O)Nc2ccc3nc(SCC(=O)Nc4ccc(C)cc4C)sc3c2)cc1 as the molecule, how does the Potency read?
The Potency was inconclusive: 13 µM [falling, partial curve, poor fit].

Which Potency does the source give for COc1cccc(NC(=O)CSc2ncc3c(n2)-c2ccc(Cl)cc2N(C)S3(=O)=O)c1 here?
Its Potency is inconclusive: 23.1 µM [falling, single point].

Which Potency does the source give for CC(C)(C)c1ccc(C(=O)NC2(C(F)(F)F)NC(=O)N(CCc3ccccc3)C2=O)cc1 (stereo not given) here?
The Potency was inconclusive: 18.4 µM [falling, single point].

Which Potency does the source give for O=C(CN(Cc1ccccc1Cl)S(=O)(=O)c1ccc(Cl)cc1)N/N=C/c1ccc(C(=O)O)cc1 here?
Its Potency is inconclusive: 14.6 µM [falling, partial curve, poor fit].

For CC(=O)O[C@@H]1[C@@H](O)CN[C@@H]1Cc1ccccc1, which Potency is on record?
The Potency was active: 0.231 µM.

With CN(C)c1ccc(/C=N\NC(=O)c2csnn2)cc1 as the molecule, how does the Potency read?
Its Potency is inconclusive: 4.11 µM [activator, partial curve, poor fit].

Which Potency does the source give for CCCN(CCC)CCCNC(=O)C1CCN(c2nc3ccc(CC)cc3s2)CC1 here?
Its Potency is inconclusive: 1.84 µM [activator, partial curve].

With CCN(CC)CCC(c1ccc(N(C)C)cc1)c1c(OC)cc(OC)c2c1OC(=O)CC2c1ccc(OC)cc1 (stereo not given) as the molecule, how does the Potency read?
Its Potency is “inactive”.

With CCOc1ccc(/C=C2\SC(=O)N(CCNC(=O)C3COc4ccccc4O3)C2=O)cc1OC (stereo not given) as the molecule, how does the Potency read?
The Potency was inconclusive: 20.6 µM [falling, partial curve, poor fit].

For O=C(Nc1ccccc1N1CCCCC1)c1ccc(F)cc1, which Potency is on record?
The Potency was “inactive”.

For Cc1ccc(/C=N/Nc2nc(Cl)c(Cl)cc2Cl)s1, which Potency is on record?
The Potency was inconclusive: 4.61 µM [activator, full curve, poor fit].

With O=C(Nc1ccc2nn(-c3ccccc3)nc2c1)c1ccco1 as the molecule, how does the Potency read?
The Potency was “inactive”.

With CC(C)CCOc1ccc(NC(=O)C2OC3OC(C)(C)OC3C3OC(C)(C)OC23)cc1 (stereo not given) as the molecule, how does the Potency read?
The Potency was “inactive”.

For Cc1cc(C)c(C#N)c(OCC(=O)c2ccc(Br)cc2)n1, which Potency is on record?
The Potency was “inactive”.

For O=C(Cc1ccc(Cl)cc1)Nc1ccc(C(=O)N2CCCCC2)cc1, which Potency is on record?
The Potency was inconclusive: 29.1 µM [falling, partial curve, poor fit].
